Reference: paper PMC5427934
No constants are given. Whether binding was seen depends on the method and setting. Binding seen in cells or lysates may run through a third protein.

The chains behind the UniProt entries cited, without tags or fusion partners.
UniProt P79922: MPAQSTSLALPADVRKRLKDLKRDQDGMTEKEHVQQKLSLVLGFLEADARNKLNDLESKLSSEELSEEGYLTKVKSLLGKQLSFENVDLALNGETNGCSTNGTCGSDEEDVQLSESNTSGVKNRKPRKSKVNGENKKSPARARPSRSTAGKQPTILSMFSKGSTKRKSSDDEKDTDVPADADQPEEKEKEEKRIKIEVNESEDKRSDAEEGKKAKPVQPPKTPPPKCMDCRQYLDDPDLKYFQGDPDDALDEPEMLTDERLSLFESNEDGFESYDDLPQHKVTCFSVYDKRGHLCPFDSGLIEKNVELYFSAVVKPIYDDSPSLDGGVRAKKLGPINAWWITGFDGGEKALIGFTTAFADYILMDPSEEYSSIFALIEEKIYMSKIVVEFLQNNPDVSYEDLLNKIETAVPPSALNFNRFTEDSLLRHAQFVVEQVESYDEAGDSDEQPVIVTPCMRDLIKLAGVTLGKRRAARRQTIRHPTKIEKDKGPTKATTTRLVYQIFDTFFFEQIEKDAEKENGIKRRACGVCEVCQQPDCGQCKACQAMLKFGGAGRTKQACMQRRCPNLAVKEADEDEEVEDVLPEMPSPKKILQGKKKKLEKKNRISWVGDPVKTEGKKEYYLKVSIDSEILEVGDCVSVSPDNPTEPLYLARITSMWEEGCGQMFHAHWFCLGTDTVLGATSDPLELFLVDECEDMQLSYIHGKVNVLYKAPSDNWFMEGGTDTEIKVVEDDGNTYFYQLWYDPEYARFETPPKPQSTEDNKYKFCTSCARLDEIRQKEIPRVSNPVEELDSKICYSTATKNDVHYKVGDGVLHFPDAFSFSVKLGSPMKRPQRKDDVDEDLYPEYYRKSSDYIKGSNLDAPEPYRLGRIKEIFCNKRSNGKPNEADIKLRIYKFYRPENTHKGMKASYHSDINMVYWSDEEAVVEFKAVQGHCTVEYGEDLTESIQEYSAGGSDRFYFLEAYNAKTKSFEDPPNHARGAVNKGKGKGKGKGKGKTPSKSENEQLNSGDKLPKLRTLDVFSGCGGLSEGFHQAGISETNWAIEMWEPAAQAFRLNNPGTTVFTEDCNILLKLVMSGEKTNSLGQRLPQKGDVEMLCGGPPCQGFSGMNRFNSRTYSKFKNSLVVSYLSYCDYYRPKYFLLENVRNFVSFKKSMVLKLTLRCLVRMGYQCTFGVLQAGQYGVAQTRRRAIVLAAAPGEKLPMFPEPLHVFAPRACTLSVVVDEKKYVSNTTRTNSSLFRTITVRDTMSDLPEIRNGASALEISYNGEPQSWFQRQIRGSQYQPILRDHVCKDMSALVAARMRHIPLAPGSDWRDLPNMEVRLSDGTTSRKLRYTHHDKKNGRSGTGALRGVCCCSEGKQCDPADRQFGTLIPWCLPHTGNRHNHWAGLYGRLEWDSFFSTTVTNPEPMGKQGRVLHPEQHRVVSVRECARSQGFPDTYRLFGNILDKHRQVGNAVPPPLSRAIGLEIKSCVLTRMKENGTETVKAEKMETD

Key:
[1] = biological target: FLAG-tagged wild-type recombinant Xenopus Dnmt1 (Xenopus) (UniProt P79922); assay: co-IP; HSS supplemented with 85 nM purified recombinant xDnmt1-FLAGx3 (wild-type or KG linker mutant); immunoprecipitation with anti-FLAG M2 agarose or anti-Usp7 antibodies; immunoblot; only the target purified
[2] = biological target: Xenopus Dnmt1 (endogenous, egg extracts) (Xenopus laevis (endogenous in egg extracts)) (UniProt P79922); assay: co-IP; endogenous proteins; Protein A agarose with anti-Dnmt1, anti-Usp7, anti-Uhrf1 antibodies or control IgG incubated with HSS 1 hr at 4 °C; washed with IP buffer (20 mM HEPES-KOH pH 7.7, 50 mM KCl, 2.5 mM MgCl2, 0.1% Triton X-100); immunoblot

B1: Xenopus Uhrf1 (endogenous, egg extracts) (enzyme, UniProt B6CHA3 1-772)
chain: MWIQVRTMDGRDTRRIDSLSKLTKVDDLRDRIQQLFGVALESQRLFYRGKQMENGHTLFDYSVGLNDIVQLLVRQIPDSFPTKHKECELSDASAGCGSGQRDSDSGSGEGAMDVDGQSISIIGENVGTSLYKKNDLVDARDLNMGAWFEAQIVNVSKKVGPYGTLPEVSDTSVTSDAIIYHVKYEDYPENGVVQLTCKDVRLRARTTLPWHEIKVGQVVMVNYNPDEPKERGYWYDAEILRKHESKKIKEIYAKVLLGDAGDSLNDCRIRFVNEIYKIEEPGSTYLNTESPQKRQNGPECKHCKDNPKRACRMCACCICGGKQDPEKQLLCDECDLAFHIYCLKPPLSVIPQDEDWYCPDCRNDASEVVLAGEKLKESKKKARMASANSSSQRDWGKGMACVGRSRECTIVPSNHYGPIPGVPVGTLWKFRVQVSESGVHRPHVAGIHGRSNDGSYSLVLAGGYEDDVDNGNEFTYTGSGGRDLSGNKRTAEQSCDQKLSNMNRALALNCSAPINDKEGSIAKDWRAGKPVRVVRNSKGRKHSKYAPEEGNRYDGIYKVVKYWPEKGKSGFLVWRYLLRRDDYEPAPWSKEGKERIKKLGLTMQYPDGYLETLASKEREKENKTEDEPIDSPSKGKRKRNSDNEQTAAKSIPKKMKVASYKLTLEQKTLIKQDVLNAKLWSEVMLFLKEGPKFVNKVEETFLCICCQEVVYEPVTTECHHNICKGCLDRSFKALVHSCPACRHDLGKNYPLNVNKPLQAILSQLFPGYESGR
Q: Which results are given for B1?
A: binding [1]: no binding; binding [2]: no binding
